The target of this assay is FLAG-TM9SF4 (UniProt Q92544). Kind of assay: co-IP; lysates of CRC cells transfected with FLAG-TM9SF4; IP/Co-IP Kit (Thermo Fisher #88804); lysate with primary antibody at 4 °C for 12 h, then flag beads for 1.5 h at room temperature; western blot.

Amino acid sequences for entries named in this document (tags omitted). Residues count along the entry.
UniProt Q92544, residues 24-642: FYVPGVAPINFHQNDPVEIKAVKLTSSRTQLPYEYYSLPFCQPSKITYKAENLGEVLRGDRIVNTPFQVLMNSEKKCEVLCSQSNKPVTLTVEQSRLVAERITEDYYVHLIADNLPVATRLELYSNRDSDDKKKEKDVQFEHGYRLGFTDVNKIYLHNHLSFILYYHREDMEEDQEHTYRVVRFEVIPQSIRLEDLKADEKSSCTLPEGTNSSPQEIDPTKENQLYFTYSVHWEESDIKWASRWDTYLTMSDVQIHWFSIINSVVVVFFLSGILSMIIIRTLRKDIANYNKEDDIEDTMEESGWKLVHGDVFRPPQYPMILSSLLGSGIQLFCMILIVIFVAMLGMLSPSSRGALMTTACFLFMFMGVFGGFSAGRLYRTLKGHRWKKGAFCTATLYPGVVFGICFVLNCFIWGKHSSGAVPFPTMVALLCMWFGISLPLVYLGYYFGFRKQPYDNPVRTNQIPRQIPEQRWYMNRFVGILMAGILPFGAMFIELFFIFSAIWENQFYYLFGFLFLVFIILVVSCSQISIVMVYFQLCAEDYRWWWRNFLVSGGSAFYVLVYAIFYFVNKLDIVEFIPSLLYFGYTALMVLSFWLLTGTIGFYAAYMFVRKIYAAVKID
UniProt O60568, residues 25-738: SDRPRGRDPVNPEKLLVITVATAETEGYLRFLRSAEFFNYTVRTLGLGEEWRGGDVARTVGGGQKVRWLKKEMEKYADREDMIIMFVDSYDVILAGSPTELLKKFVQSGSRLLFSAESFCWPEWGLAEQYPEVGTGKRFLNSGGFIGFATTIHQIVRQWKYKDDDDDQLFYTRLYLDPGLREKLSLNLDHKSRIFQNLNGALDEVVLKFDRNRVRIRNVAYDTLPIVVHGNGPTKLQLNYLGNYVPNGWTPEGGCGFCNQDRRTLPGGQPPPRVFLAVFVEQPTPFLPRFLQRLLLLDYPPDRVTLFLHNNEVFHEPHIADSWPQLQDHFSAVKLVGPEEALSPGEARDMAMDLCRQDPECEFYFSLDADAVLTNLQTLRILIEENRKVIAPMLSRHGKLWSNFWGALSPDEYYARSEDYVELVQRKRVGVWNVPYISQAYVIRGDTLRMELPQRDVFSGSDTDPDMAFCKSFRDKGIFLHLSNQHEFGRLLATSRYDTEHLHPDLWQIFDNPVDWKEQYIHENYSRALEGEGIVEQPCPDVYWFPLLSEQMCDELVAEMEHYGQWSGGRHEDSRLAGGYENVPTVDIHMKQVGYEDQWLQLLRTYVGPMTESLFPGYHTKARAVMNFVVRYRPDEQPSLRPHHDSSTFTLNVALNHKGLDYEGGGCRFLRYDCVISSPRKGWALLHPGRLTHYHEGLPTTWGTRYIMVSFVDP

These are yes or no findings as the source states them, for the method shown. In cells and extracts the contact can be indirect. Some results given as binding are weak or reduced against the parent protein; the word gives no strength.

With PLOD3 (from UniProt O60568 25-738), the binding entry is recorded as “binds”.
